Experimental data taken from the supplement of paper PMC7411640.
Counter-ions that a name gives are not always drawn. The list shows a part of the results. Most values lie within the scatter of the assay; repeated measurements hardly agree.

Tested on: MDA-MB-468
Assay: phospho-S6 immunofluorescence (DAPI-normalised), per-plate z-score; higher = higher phospho-S6 signal (less pathway suppression)
Conditions: compound 0.1 µM; co-treatment: vehicle; 24 h
Experimental: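 GPCR-targeted compound library (MedChemExpress HY-L006) tested on MDA-MB-468 PTEN-null TNBC cells in 384-well plates at 0.1, 1 or 10 uM, combined with vehicle, GDC0941 450 nM or lapatinib 1 uM, for 24 h. Phospho-S6 (S240/244) immunofluorescence normalised to DAPI and expressed as a per-plate z-score; values are the mean of biological triplicates.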

Row | SMILES | phospho-S6 immunofluorescence (z-score)
1 | N=C(N)NCCCCN [Agmatine (sulfate)] | -0.72
2 | CN1CCN(C(=O)c2cc3cc(Cl)ccc3[nH]2)CC1 | -0.07
3 | CN1CCc2cc(Cl)c(O)cc2[C@@H](c2ccccc2)C1 | 0.46
4 | COc1cc2nc(N3CCN(C(=O)C4CCCO4)CC3)nc(N)c2cc1OC (centres undefined) [Terazosin (hydrochloride dihydrate)] | 0.07
5 | NCCc1c[nH]cn1 [Histamine] | -0.13
6 | CCN1CCCC1CNC(=O)c1cc(S(N)(=O)=O)ccc1OC (centres undefined) [Sulpiride] | -0.09
7 | COCCOc1ccc(N2CCN(CCn3ncc4c3nc(N)n3nc(-c5ccco5)nc43)CC2)cc1 [Preladenant] | 0.36
8 | CCN(CC)CCNC(=O)c1cc(Cl)c(N)cc1OC [Metoclopramide (hydrochloride hydrate)] | 0.35
9 | Nc1ccc(/C=C/c2cccc(C(=O)O)n2)cc1 | -0.04
10 | CC(C)C(=O)OCC(=O)[C@@]12O[C@H](C3CCCCC3)O[C@@H]1C[C@H]1[C@@H]3CCC4=CC(=O)C=C[C@]4(C)[C@H]3[C@@H](O)C[C@@]12C [Ciclesonide] | -0.43
11 | N#Cc1ccc2[nH]cc(CCCCN3CCN(c4ccc5oc(C(N)=O)cc5c4)CC3)c2c1 [Vilazodone] | -0.57
12 | Cc1ccc(Sc2ccccc2N2CCNCC2)c(C)c1 [Vortioxetine] | -1.35
13 | CN(C)CCCN1c2ccccc2Sc2ccc(Cl)cc21 [Chlorpromazine (hydrochloride)] | 0.81
14 | Clc1ccc(Cn2c(CN3CCCC3)nc3ccccc32)cc1 [Clemizole (hydrochloride)] | -1.19

Random excerpt: two entries already listed, in no set order.
Row | SMILES | phospho-S6 immunofluorescence (z-score)
2 | CN1CCN(C(=O)c2cc3cc(Cl)ccc3[nH]2)CC1 | -0.07
8 | CCN(CC)CCNC(=O)c1cc(Cl)c(N)cc1OC [Metoclopramide (hydrochloride hydrate)] | 0.35
